Results are given in words; binding and its absence hold for the method and conditions named.
Target: human ANKLE1_(331–615) R492H (human) (UniProt Q8NAG6)
Assay: SEC; Superdex 75 (10/300), 0.4 ml/min, 25 mM HEPES (pH 7.5), 0.1 M NaCl, 0.1 mM EDTA, 10% glycerol; elution compared with carbonic anhydrase (29 000 Da); calculated monomer mass 33 000 Da; both purified

binding: no binding
B1: human ANKLE1_(331–615) R492H (domain or fragment, UniProt Q8NAG6-2 331-615)
chain: MATLWLTEDEASSTGGREPVGPCRHLPVSTVSDLELLKGLRALGENPHPITPFTRQLYHQQLEEAQIAPGPEFSGHSLELAAALRTGCIPDVQADEDALAQQFEQPDPARRWREGVVKSSFTYLLLDPRETQDLPARAFSLTPAERLQTFIRAIFYVGKGTHARPYVHLWEALGHHGRSRKQPHQACPKVRQILDIWASGCGVVSLHCFQHVVAVEAYTREACIVEALGIQTLTNQKQGHCYGVVAGWPPARRRRLGVHLLHRALLVFLAEGERQLHPQDIQARG

— paper PMC10287932
